Experimental findings from the supplement of paper PMC12819154, “High-throughput peptide-centric local stability assay extends protein–ligand identification to membrane proteins, tissues and bacteria” (Nature Structural & Molecular Biology, 2025) are described below.

Amino acid sequences for entries named in this document (tags omitted). A change or cut given only in a name is not applied to a line headed by its entry.
UniProt Q8TCP9: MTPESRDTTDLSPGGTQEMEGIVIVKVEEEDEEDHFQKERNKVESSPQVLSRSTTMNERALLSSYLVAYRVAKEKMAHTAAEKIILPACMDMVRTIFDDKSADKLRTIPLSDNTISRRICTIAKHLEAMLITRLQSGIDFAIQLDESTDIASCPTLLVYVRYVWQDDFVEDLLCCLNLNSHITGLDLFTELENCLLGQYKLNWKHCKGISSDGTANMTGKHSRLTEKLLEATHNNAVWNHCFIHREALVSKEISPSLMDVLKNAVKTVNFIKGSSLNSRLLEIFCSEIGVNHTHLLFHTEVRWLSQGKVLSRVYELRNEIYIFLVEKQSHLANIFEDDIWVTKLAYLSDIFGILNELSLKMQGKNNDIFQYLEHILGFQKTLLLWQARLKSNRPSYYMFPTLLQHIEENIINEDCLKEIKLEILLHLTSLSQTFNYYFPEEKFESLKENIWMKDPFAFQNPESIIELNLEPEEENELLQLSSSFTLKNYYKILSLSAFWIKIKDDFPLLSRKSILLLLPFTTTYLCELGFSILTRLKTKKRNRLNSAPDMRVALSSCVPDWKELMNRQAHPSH
UniProt Q8WYA0: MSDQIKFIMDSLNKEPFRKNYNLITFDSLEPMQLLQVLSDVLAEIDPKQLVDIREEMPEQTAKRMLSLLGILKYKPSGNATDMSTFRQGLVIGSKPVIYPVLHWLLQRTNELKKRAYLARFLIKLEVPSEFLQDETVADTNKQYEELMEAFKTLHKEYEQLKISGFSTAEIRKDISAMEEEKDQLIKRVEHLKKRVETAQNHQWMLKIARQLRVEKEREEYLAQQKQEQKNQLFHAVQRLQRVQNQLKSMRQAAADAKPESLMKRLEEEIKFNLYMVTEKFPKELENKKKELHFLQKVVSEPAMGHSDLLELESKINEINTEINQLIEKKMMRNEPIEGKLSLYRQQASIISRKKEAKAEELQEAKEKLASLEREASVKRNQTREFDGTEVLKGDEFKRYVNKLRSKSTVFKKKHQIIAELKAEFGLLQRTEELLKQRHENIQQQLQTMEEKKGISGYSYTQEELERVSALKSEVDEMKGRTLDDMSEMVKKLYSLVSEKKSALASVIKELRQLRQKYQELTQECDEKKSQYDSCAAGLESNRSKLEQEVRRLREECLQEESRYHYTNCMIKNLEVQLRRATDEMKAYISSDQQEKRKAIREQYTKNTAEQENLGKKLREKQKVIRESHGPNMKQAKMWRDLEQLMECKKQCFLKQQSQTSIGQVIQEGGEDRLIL
UniProt Q92551: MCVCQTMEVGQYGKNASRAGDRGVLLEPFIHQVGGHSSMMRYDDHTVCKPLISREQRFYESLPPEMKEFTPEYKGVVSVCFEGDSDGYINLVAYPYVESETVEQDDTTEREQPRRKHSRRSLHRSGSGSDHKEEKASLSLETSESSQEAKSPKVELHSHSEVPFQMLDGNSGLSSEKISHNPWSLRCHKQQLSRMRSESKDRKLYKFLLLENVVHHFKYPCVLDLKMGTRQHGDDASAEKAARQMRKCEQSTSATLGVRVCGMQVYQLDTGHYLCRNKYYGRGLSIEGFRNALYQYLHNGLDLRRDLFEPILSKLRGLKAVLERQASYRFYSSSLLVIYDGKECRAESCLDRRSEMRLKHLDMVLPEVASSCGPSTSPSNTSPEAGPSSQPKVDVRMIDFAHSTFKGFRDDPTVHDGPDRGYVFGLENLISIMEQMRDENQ
UniProt Q8TBB5: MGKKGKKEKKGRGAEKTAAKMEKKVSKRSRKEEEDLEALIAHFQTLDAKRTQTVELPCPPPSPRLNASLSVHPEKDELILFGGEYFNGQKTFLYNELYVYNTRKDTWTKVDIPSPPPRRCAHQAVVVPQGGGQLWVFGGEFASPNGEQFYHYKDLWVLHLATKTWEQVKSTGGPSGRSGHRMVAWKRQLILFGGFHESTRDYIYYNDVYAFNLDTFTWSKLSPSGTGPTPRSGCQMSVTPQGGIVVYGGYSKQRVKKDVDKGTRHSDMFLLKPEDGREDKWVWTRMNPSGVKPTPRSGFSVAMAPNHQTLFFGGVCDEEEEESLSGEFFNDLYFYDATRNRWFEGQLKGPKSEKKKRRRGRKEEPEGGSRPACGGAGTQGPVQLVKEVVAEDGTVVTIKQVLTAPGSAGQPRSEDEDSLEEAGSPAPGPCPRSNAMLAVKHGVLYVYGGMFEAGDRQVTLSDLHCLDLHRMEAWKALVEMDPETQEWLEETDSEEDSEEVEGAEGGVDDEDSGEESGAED
UniProt Q8WZ73: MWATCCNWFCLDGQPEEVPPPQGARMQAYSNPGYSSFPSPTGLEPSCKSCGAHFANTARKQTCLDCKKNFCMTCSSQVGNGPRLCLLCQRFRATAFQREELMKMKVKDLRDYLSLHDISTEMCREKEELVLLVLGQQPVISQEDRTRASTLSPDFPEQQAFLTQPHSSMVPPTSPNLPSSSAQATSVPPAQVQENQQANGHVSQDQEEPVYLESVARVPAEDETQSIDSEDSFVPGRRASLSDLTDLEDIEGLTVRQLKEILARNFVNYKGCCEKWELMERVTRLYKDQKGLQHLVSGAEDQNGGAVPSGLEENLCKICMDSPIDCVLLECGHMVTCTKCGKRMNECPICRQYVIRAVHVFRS
UniProt Q92585: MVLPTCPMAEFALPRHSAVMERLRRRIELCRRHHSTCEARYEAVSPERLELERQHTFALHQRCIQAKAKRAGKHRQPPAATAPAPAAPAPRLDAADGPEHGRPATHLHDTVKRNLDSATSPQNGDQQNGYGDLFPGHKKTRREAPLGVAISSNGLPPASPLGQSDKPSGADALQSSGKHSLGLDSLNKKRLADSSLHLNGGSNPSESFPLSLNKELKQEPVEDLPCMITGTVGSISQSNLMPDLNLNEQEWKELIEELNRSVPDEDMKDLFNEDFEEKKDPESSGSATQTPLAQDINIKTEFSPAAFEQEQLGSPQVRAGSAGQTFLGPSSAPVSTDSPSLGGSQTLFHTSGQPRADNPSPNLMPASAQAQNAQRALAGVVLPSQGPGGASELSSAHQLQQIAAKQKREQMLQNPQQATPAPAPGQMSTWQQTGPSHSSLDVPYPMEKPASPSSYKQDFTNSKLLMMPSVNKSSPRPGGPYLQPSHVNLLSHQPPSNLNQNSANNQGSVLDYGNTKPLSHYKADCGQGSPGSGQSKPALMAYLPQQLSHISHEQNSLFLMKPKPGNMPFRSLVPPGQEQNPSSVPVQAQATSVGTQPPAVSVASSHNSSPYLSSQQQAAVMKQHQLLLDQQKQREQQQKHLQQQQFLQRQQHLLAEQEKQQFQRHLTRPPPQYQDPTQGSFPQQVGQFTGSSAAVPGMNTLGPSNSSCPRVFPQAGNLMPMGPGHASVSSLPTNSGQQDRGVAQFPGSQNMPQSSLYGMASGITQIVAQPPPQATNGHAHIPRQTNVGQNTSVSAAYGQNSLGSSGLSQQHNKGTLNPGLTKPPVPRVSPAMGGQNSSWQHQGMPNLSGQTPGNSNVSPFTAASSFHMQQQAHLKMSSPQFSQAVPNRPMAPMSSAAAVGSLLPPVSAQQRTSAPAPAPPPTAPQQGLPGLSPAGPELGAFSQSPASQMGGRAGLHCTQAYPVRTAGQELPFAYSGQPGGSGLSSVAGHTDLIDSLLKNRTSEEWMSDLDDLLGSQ
UniProt Q8WUF8: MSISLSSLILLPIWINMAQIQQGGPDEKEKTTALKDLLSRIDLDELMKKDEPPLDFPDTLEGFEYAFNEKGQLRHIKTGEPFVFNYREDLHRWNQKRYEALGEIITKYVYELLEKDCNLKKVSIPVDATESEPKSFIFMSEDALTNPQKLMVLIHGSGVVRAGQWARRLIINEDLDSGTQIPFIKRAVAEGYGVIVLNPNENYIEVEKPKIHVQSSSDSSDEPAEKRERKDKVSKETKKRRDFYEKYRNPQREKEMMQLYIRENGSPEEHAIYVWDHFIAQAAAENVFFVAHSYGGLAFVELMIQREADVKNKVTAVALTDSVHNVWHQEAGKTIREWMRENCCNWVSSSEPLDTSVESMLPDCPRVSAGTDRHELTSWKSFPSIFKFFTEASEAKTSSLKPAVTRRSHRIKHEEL
UniProt Q8WU10: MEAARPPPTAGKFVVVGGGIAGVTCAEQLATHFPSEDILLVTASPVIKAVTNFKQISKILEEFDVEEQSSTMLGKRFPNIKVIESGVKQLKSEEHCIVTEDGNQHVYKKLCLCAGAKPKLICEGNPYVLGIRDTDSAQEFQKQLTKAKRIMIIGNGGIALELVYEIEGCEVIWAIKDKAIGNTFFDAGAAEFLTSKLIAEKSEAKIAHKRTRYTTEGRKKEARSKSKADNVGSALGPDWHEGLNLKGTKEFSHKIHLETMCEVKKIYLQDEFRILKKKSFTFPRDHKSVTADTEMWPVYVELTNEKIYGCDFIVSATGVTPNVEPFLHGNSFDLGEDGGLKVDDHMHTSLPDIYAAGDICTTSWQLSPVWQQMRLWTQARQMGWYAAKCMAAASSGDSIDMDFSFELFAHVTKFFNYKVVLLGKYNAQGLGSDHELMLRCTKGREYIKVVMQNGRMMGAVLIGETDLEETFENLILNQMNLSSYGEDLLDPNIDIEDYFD
UniProt Q8TC07: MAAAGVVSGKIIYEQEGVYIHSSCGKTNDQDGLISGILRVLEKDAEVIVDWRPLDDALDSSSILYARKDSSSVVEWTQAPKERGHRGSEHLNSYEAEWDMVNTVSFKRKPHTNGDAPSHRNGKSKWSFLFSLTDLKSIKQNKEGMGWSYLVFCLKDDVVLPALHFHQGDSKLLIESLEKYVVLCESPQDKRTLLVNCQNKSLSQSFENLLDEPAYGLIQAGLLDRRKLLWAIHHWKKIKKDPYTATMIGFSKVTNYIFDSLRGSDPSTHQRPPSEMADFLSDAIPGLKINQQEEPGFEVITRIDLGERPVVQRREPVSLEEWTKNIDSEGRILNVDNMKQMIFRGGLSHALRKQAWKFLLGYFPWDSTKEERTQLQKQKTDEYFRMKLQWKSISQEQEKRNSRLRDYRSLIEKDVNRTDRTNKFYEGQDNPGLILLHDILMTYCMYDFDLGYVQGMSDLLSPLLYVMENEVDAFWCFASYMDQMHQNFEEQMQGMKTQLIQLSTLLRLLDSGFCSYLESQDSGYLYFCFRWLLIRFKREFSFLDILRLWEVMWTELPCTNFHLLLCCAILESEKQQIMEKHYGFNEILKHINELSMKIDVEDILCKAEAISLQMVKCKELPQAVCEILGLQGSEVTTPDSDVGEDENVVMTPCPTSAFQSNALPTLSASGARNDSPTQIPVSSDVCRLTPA
UniProt Q8TA94: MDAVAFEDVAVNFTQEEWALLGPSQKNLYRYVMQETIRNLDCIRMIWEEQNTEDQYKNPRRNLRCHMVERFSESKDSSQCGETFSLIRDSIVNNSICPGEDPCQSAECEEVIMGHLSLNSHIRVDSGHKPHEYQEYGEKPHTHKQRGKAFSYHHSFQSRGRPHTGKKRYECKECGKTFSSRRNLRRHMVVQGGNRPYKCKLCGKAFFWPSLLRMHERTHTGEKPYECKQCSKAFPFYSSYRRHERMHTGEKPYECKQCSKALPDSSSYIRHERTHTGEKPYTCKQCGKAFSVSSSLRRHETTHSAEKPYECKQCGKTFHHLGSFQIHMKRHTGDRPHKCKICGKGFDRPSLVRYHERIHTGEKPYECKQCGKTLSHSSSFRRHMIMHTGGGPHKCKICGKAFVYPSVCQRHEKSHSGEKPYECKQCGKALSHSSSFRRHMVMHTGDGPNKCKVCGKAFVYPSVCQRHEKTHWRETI

The list shows a part of the results. Most values lie at the level of the controls, where differences are scatter.

Compound in this test: Cc1nc(Nc2ncc(C(=O)Nc3c(C)cccc3Cl)s2)cc(N2CCN(CCO)CC2)n1 [dasatinib]
The test can be described thus: log2 fold change of tryptic peptide abundance, ligand vs vehicle (limited proteolysis) (log2 ratio); higher = more trypsin-susceptible (destabilized). The settings on record: ligand concentration: 5 uM; sample: K562 cleared lysate.
As to “UniProt Q8TCP9 (peptide sequence: VALSSCVPDWK, peptide start residue: 552)”, the log2 fold change was -0.44.
The value for “IFT81 (peptide sequence: AEELQEAK, peptide start residue: 359) (UniProt Q8WYA0)” was 0.328; that for “IP6K1 (peptide sequence: GVLLEPFIHQVGGHSSMMR, peptide start residue: 23) (UniProt Q92551)” was 0.221; that for “KLHDC4 (peptide sequence: KEEPEGGSRPACGGAGTQGPVQLVK, peptide start residue: 362) (UniProt Q8TBB5)” was 0.0836.
The value for “RFFL (peptide sequence: GCCEKWELMER, peptide start residue: 271) (UniProt Q8WZ73)” was -0.026; that for “MAML1 (peptide sequence: HLQQQQFLQR, peptide start residue: 640) (UniProt Q92585)” was 0.252; that for “FAM172A (peptide sequence: TGEPFVFNYR, peptide start residue: 78) (UniProt Q8WUF8)” was -0.727.
Consider “PYROXD1 (peptide sequence: IHLETMCEVKKIYLQDEFR, peptide start residue: 255) (UniProt Q8WU10)”, for which the log2 fold change was 0.176.
As to “TBC1D15 (peptide sequence: YVVLCESPQDKR, peptide start residue: 180) (UniProt Q8TC07)”, the log2 fold change is -0.301.
Turning to “UniProt Q8TA94 (peptide sequence: AFSYHHSFQSR, peptide start residue: 149)”, the log2 fold change is -0.699.
